# Measured values from PubChem BioAssay AID504444 (National Center for Advancing Translational Sciences (NCATS), 2011).
# Among all 360,000 compounds or so, about 7,500 (2.1%) were called active. This list was built around the results that the source calls inconclusive (neither active nor inactive); the mix of calls is not that of the screen. Calls follow the shape of the dose curve; as a rule, active = well fitted inhibition curve with a large enough effect; inconclusive = small, poorly fitted or top-dose-only effect, or effect the other way; inactive = flat fitted curve, though single readings scatter. Where the call is inconclusive, the potency comes from a doubtful curve fit.
# Assay: Nrf2 qHTS screen for inhibitors; also: nearly all actives have a fitted effect of over 60% in size
# Conditions: A549 ARE-Fluc reporter, luciferase luminescence, 18-24 h; series mostly up to 46 µM
# Method in brief: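 Nrf2 activity is the BugLite luminescence, read 15 min after reagent at room temperature, following CellTiter-Fluor cytotoxicity readout (30 min, 37C). Compound titrations were applied for 18-24 h to 5000 A549 ARE_Fluc cells/well in 5% FBS OPTI-MEM.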
# Potency is read from the fitted curve at half-maximal effect.
row,Structure (SMILES),Potency
1,COc1ccc(CC(=O)Nc2ccc(C(=O)NC(C)(C)C)cc2)cc1OC,"inconclusive: 32.6 µM [falling, partial curve, poor fit]"
2,c1ccc2c(CSc3nnc(-c4ccncc4)o3)cccc2c1,"inconclusive: 20.6 µM [falling, partial curve, poor fit]"
3,CC[n+]1c(/C=C/c2ccc(N(C)C)cc2)ccc2ccccc21,active: 8.2 µM
4,COc1cccc(C2c3c(ncn(-c4ccc(F)cc4)c3=N)Oc3ccc4ccccc4c32)c1 (configuration not stated),"inconclusive: 29.1 µM [falling, single point]"
5,O=C(Nc1cccc(Cl)c1)c1csc(-c2ccccc2)n1,"inconclusive: 20.6 µM [activator, partial curve, poor fit]"
6,CC(OC(=O)CCN=C1NS(=O)(=O)c2ccccc21)C(=O)NCc1ccccc1 (configuration not stated),inactive
7,COc1ccc(C)c2sc(N(CCN(C)C)C(=O)c3ccc4ccccc4c3)nc12,"inconclusive: 29.1 µM [falling, single point]"
8,Cc1ccc2onc(CNC(=O)N3CCN(c4cccc(C)c4C)CC3)c2c1,"inconclusive: 23.1 µM [falling, single point]"
9,C/C(CC(=O)Nc1cc(C)ccn1)=N\NC(=O)c1cccc(F)c1,"inconclusive: 13 µM [activator, partial curve]"
10,Cc1ccc2c(c1)/C(=C/c1ccccc1C)C(=O)N2,inactive
11,Cc1ccc(C(=O)NCC2CCCN2S(=O)(=O)c2ccc(C)cc2)cc1 (configuration not stated),inactive
12,Cc1cc(S(=O)(=O)N(Cc2cccs2)Cc2ccccc2F)ccc1-n1cnnn1,"inconclusive: 29.1 µM [falling, single point]"
13,O=C(NCCc1ccc2c(c1)OCCO2)c1cc2ccccc2o1,"inconclusive: 20.6 µM [falling, single point]"
14,Cc1c(CC(=O)NCCC(=O)O)c(=O)oc2cc3occ(-c4ccccc4)c3cc12,"inconclusive: 5.17 µM [falling, single point]"
15,COc1cccc(C=NNc2ccc([N+](=O)[O-])cn2)c1OC,"inconclusive: 11.6 µM [activator, partial curve]"
16,CN(C)/C=N/C(=S)Nc1ccc(Br)cc1F,"inconclusive: 4.61 µM [activator, full curve]"
17,CCOc1ccc2[nH]c(C)cc(=O)c2c1,inactive
18,c1ccc2c(c1)OCCOCCOCCOCCOCCOc1ccccc1OCCOCCOCCO2,"inconclusive: 23.1 µM [falling, single point]"
19,O=c1[nH]c(/C=C/c2ccccc2)c([N+](=O)[O-])c(=O)[nH]1,inactive
20,COc1ccc(N2C(=O)C3[C@@H](C2=O)C2(Cl)C(Cl)=C(Cl)C3(Cl)C2(OC)OC)cc1 (some centres not stated),inactive
21,Cc1cc2nn(-c3ccc(Cl)cc3)nc2cc1N,"inconclusive: 1.84 µM [activator, full curve]"
22,O=C(NCCCc1ccccc1)c1c(O)nc2sccn2c1=O,"inconclusive: 16.4 µM [falling, partial curve, poor fit]"
23,c1csc(-c2ccc3ccccc3n2)c1,"inconclusive: 13 µM [activator, partial curve]"

# A stretch of the results above, for reference:
row,Structure (SMILES),Potency
2,c1ccc2c(CSc3nnc(-c4ccncc4)o3)cccc2c1,"inconclusive: 20.6 µM [falling, partial curve, poor fit]"
3,CC[n+]1c(/C=C/c2ccc(N(C)C)cc2)ccc2ccccc21,active: 8.2 µM
4,COc1cccc(C2c3c(ncn(-c4ccc(F)cc4)c3=N)Oc3ccc4ccccc4c32)c1 (configuration not stated),"inconclusive: 29.1 µM [falling, single point]"
5,O=C(Nc1cccc(Cl)c1)c1csc(-c2ccccc2)n1,"inconclusive: 20.6 µM [activator, partial curve, poor fit]"
6,CC(OC(=O)CCN=C1NS(=O)(=O)c2ccccc21)C(=O)NCc1ccccc1 (configuration not stated),inactive
7,COc1ccc(C)c2sc(N(CCN(C)C)C(=O)c3ccc4ccccc4c3)nc12,"inconclusive: 29.1 µM [falling, single point]"
8,Cc1ccc2onc(CNC(=O)N3CCN(c4cccc(C)c4C)CC3)c2c1,"inconclusive: 23.1 µM [falling, single point]"
9,C/C(CC(=O)Nc1cc(C)ccn1)=N\NC(=O)c1cccc(F)c1,"inconclusive: 13 µM [activator, partial curve]"
10,Cc1ccc2c(c1)/C(=C/c1ccccc1C)C(=O)N2,inactive
11,Cc1ccc(C(=O)NCC2CCCN2S(=O)(=O)c2ccc(C)cc2)cc1 (configuration not stated),inactive
12,Cc1cc(S(=O)(=O)N(Cc2cccs2)Cc2ccccc2F)ccc1-n1cnnn1,"inconclusive: 29.1 µM [falling, single point]"
13,O=C(NCCc1ccc2c(c1)OCCO2)c1cc2ccccc2o1,"inconclusive: 20.6 µM [falling, single point]"
14,Cc1c(CC(=O)NCCC(=O)O)c(=O)oc2cc3occ(-c4ccccc4)c3cc12,"inconclusive: 5.17 µM [falling, single point]"
15,COc1cccc(C=NNc2ccc([N+](=O)[O-])cn2)c1OC,"inconclusive: 11.6 µM [activator, partial curve]"
16,CN(C)/C=N/C(=S)Nc1ccc(Br)cc1F,"inconclusive: 4.61 µM [activator, full curve]"
17,CCOc1ccc2[nH]c(C)cc(=O)c2c1,inactive
18,c1ccc2c(c1)OCCOCCOCCOCCOCCOc1ccccc1OCCOCCOCCO2,"inconclusive: 23.1 µM [falling, single point]"

# (cont.)

row,Structure (SMILES),Potency
1,COc1ccc(OC)c(NC(=O)C2CCCN(S(=O)(=O)c3cccc4nsnc34)C2)c1 (configuration not stated),inactive
2,O=C1CSC2(C(=O)N(Cc3ccccc3F)c3ccccc32)N1c1ccc(F)cc1 (configuration not stated),"inconclusive: 32.6 µM [falling, single point]"
3,CCN1C(=O)C(CC(=O)Nc2ccc(Br)cc2)N(CCCc2ccccc2)C1=S (configuration not stated),"inconclusive: 29.1 µM [falling, single point]"
4,CCCCNC(=O)c1ccc(N2CCOCC2)c(NS(=O)(=O)c2ccc(OC)cc2)c1,"inconclusive: 0.0164 µM [falling, full curve, poor fit]"
5,COc1ccc(CN2CCN(C(=O)c3ccc4nc(N5CCOCC5)sc4c3)CC2)c(OC)c1OC,inactive
6,Cc1ccc2oc(C(=O)NCCC3CCCCO3)c(C)c2c1 (configuration not stated),"inconclusive: 4.11 µM [activator, full curve]"
7,COc1ccc(C2CC(=O)Nc3c2c(C)nn3-c2nncc(-c3ccc(C)cc3)n2)c(OC)c1OC (configuration not stated),inactive
8,Cc1cccc(NS(=O)(=O)c2ccc(C)c(C(=O)NCc3ccccn3)c2)c1,inactive
9,CCN(CC)S(=O)(=O)c1ccc2nc(CCl)[nH]c2c1,"inconclusive: 29.1 µM [falling, single point]"
10,CC1(C)Cc2c(cnn2-c2ccccc2)C(=O)/C1=N\NC(=O)c1ccccc1N,inactive
11,CC(OC(=O)c1snc(C(=O)NC2CCCCC2)c1N)C(=O)NC(C)(C)C (configuration not stated),active: 11.2 µM
12,Cc1nc(SCC(=O)OCc2ccccc2)c(C#N)c(-c2ccccc2)c1C(=O)Nc1ccccc1,"inconclusive: 0.164 µM [falling, full curve, poor fit]"
13,COc1ccc(C2CC(c3ccccc3)=NN2C(=O)CSc2ncccn2)cc1 (configuration not stated),"inconclusive: 13 µM [falling, partial curve, poor fit]"
14,Cc1ccc(S(=O)(=O)N2CCC(NC(=O)OC(C)C)CC2)cc1,"inconclusive: 0.0046 µM [falling, full curve, poor fit]"
15,O=S1(=O)CCC(N=Cc2ccc(-c3ccc(Cl)cc3)o2)C1 (configuration not stated),"inconclusive: 7.31 µM [activator, partial curve]"
16,O=S(=O)(/C=C/c1ccccc1)N1CCOCC1,"inconclusive: 7.31 µM [falling, single point]"
17,Cc1ccc(S(=O)(=O)Nc2cccc(Cl)c2)cc1NC(=O)C1CC1,"inconclusive: 11.6 µM [falling, partial curve, poor fit]"
18,O=C(Nc1ccc(-c2nnc(-c3ccco3)o2)cc1)C(c1ccccc1)c1ccccc1,"inconclusive: 20.6 µM [falling, single point]"
19,Cc1cccc(NS(=O)(=O)c2ccc(C(=O)NCC(c3ccco3)N(C)C)cc2)c1C (configuration not stated),"inconclusive: 18.4 µM [falling, partial curve, poor fit]"
20,CN(C)/C=C/C(=O)/C=C/c1ccc(Cl)cc1Cl,"inconclusive: 16.4 µM [activator, partial curve]"
21,Cc1ccc2ncnc(Nc3ccc(C)c(C)c3)c2c1,active: 14.6 µM
22,C[C@@]12C(=O)N(Cc3ccccc3)CC(=O)N1[C@H](/C=C/c1ccccc1)[C@@H]1C(=O)N(c3ccccc3)C(=O)[C@@H]12,inactive
23,Cc1ccc(C2CC(=O)c3cnn(-c4nc(C)cc(C)n4)c3C2)cc1 (configuration not stated),"inconclusive: 14.6 µM [falling, partial curve]"

row,Structure (SMILES),Potency
1,COc1ccc(C(=O)NC(C)Cc2cnccn2)cc1OC1CCN(C(C)C)CC1 (configuration not stated),"inconclusive: 23.1 µM [activator, partial curve, poor fit]"
2,Cc1cccc(C(=O)N/C(=C\c2ccco2)C(=O)N2CCCC2)c1,"inconclusive: 23.1 µM [falling, partial curve, poor fit]"
3,CCCOc1ccc(OCCSc2ncccn2)cc1,"inconclusive: 7.31 µM [activator, partial curve]"
4,Cc1noc(C)c1COC(=O)CCOc1ccccc1,"inconclusive: 4.61 µM [falling, single point]"
5,Cc1nc2sc(C(N)=O)c(N)c2c2c1CCCC2,inactive
6,Cn1cncc1C#Cc1c(-c2ccc(S(C)(=O)=O)cc2)sc2ccccc12,"inconclusive: 14.6 µM [falling, single point]"
7,COCCn1c(C)cc(C(=O)COC(=O)c2[nH]c(C)c(C(C)=O)c2C)c1C,active: 23.1 µM
8,CCCc1nc2ccccc2c(=O)n1NC(=O)c1c(O)c2ccccc2n(C)c1=O,active: 18.4 µM
9,CCOC(=O)c1c(C)nc2c3ccccc3ccn12,"inconclusive: 14.6 µM [activator, partial curve]"
10,Cc1cc(-c2nnc(SCC(=O)Nc3ccccc3)n2C)no1,"inconclusive: 32.6 µM [falling, partial curve, poor fit]"
11,CCC(=O)Nc1cc(C(=O)OCC(=O)c2ccccc2)ccc1C,"inconclusive: 3.66 µM [activator, partial curve]"
12,CCOc1ccc(S(=O)(=O)NCCC(=O)N2CCC(Cc3ccccc3)CC2)cc1,"inconclusive: 29.1 µM [falling, single point]"
13,CCN(CCCNC(=O)Cn1ncc2c([nH]c3ccc(C)cc32)c1=O)c1cccc(C)c1,"inconclusive: 8.2 µM [activator, partial curve, poor fit]"
14,CC(C)c1ccc(S(=O)(=O)N2CCC(C(=O)N3CCC3)CC2)cc1,"inconclusive: 23.1 µM [falling, single point]"
15,COc1cccc2c(=O)c(C(=O)NCc3cccs3)c[nH]c12,"inconclusive: 1.3 µM [activator, full curve, poor fit]"
16,CCOC(=O)C1Oc2ccccc2C(c2ccc(F)cc2)=C1C(=O)OC (configuration not stated),"inconclusive: 29.1 µM [falling, single point]"
17,CC1COc2c(N3CCN(C)CC3)c(F)cc3c(=O)c(C(=O)O)cn1c23 (configuration not stated),"inconclusive: 32.6 µM [falling, partial curve, poor fit]"
18,Cc1ccc(C)c(OCC(=O)N/N=C/c2ccsc2)c1,"inconclusive: 0.0065 µM [falling, full curve, poor fit]"
19,COc1ccc(NC(=S)NCc2ccc(F)cc2)cc1,"inconclusive: 18.4 µM [falling, partial curve, poor fit]"
20,CCCCOc1ccc(CON(C(C)=O)C(C)=O)cc1Cl,"inconclusive: 29.1 µM [falling, partial curve, poor fit]"
21,C[C@@H]1CC=C[C@H]2[C@H]1C(=O)N(Cc1ccccc1)[C@H]2c1ccc(-c2cc3ccccc3s2)cc1F,"inconclusive: 14.6 µM [activator, partial curve]"
